{"source": "paper PMC10154249", "about": "“Unique progerin C-terminal peptide ameliorates Hutchinson–Gilford progeria syndrome phenotype by rescuing BUBR1” (Nature Aging, 2023)", "tested_on": "progerin", "experiment": "MS analysis of progerin-binding proteins", "details": "Fig. 4e; sequence coverage of interacting protein", "data": [{"molecule": "LaminB2 (protein) MSPPSPGRRREQRRPRAAATMATPLPGRAGGPATPLSPTRLSRLQEKEELRELNDRLAHYIDRVRALELENDRLLLKISEKEEVTTREVSGIKALYESELADARRVLDETARERARLQIEIGKLRAELDEVNKSAKKREGELTVAQGRVKDLESLFHRSEVELAAALSDKRGLESDVAELRAQLAKAEDGHAVAKKQLEKETLMRVDLENRCQSLQEELDFRKSVFEEEVRETRRRHERRLVEVDSSRQQEYDFKMAQALEELRSQHDEQVRLYKLELEQTYQAKLDSAKLSSDQNDKAASAAREELKEARMRLESLSYQLSGLQKQASAAEDRIRELEEAMAGERDKFRKMLDAKEQEMTEMRDVMQQQLAEYQELLDVKLALDMEINAYRKLLEGEEERLKLSPSPSSRVTVSRATSSSSGSLSATGRLGRSKRKRLEVEEPLGSGPSVLGTGTGGSGGFHLAQQASASGSVSIEEIDLEGKFVQLKNNSDKDQSLGNWRIKRQVLEGEEIAYKFTPKYILRAGQMVTVWAAGAGVAHSPPSTLVWKGQSSWGTGESFRTVLVNADGEEVAMRTVKKSSVMRENENGEEEEEEAEFGEEDLFHQQGDPRTTSRGCYVM", "values": [{"measurement": "Coverage (mass spectrometry assays of the interacting proteins of progerin)", "result": 4.35, "unit": "%"}]}]}
